Experimental data: paper PMC5270673, “Altered stoichiometry and nuclear delocalization of NonO and PSF promote cellular senescence” (Aging (Albany NY), 2016)
No constants are given. Whether binding was seen depends on the method and setting. Some binding calls cover weakened binding; strength is not graded here.

Biological target: T1, Splicing Factor Proline/Glutamine Rich, PSF/SFPQ (human (endogenous in BJ fibroblasts)) (UniProt P23246)
T1 sequence: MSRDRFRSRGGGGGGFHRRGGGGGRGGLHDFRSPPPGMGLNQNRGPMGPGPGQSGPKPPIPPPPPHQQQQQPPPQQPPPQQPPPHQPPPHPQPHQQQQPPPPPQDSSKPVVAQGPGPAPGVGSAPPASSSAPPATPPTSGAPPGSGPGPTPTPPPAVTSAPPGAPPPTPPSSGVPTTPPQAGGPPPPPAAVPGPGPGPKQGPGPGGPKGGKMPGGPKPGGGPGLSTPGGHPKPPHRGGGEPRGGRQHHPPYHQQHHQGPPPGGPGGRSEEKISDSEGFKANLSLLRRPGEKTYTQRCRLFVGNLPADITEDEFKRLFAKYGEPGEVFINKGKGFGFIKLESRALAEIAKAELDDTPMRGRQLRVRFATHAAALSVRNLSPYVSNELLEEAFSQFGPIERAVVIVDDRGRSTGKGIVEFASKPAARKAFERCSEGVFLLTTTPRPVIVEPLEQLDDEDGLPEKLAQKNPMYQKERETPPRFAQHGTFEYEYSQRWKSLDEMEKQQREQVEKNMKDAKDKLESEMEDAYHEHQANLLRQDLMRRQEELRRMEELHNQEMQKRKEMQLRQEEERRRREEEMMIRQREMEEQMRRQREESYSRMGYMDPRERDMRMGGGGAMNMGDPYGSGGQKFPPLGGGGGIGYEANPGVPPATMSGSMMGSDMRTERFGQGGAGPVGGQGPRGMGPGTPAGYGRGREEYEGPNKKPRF
Test: SEC; Superose 6 FPLC of nuclear and cytoplasmic extracts of BJ fibroblasts, untransfected or overexpressing NonO, day 8; 400 mM KCl, 20 mM HEPES pH 7.9, 1.0 mM MgCl2, 0.5 mM EGTA, 10% glycerol; fractions blotted with anti-NonO and anti-PSF; masses estimated from marker proteins

binding: binds
B1: NonO overexpressed in BJ fibroblasts (natural protein, UniProt Q99K48 1-473, looked up)
chain: MQSNKAFNLEKQNHTPRKHHQHHHQQHHQQQQQQQQQQPPPPIPANGQQASSQNEGLTIDLKNFRKPGEKTFTQRSRLFVGNLPPDITEEEMRKLFEKYGKAGEVFIHKDKGFGFIRLETRTLAEIAKVELDNMPLRGKQLRVRFACHSASLTVRNLPQYVSNELLEEAFSVFGQVERAVVIVDDRGRPSGKGIVEFSGKPAARKALDRCSEGSFLLTTFPRPVTVEPMDQLDDEEGLPEKLVIKNQQFHKEREQPPRFAQPGSFEYEYAMRWKALIEMEKQQQDQVDRNIKEAREKLEMEMEAARHEHQVMLMRQDLMRRQEELRRMEELHNQEVQKRKQLELRQEEERRRREEEMRRQQEEMMRRQQEGFKGTFPDAREQEIRMGQMAMGGAMGINNRGAMPPAPVPPGTPAPPGPATMMPDGTLGLTPPTTERFGQAATMEGIGAIGGTPPAFNRPAPGAEFAPNKRRRY
notes: NonO cDNA expressed from a transfected plasmid; Its NonO fragments end at residue 473; The tag is therefore unknown; also called NonO OE; full-length NonO; source: BJ human diploid fibroblasts, stably transfected, nuclear or cytoplasmic extract
